# Where “and” joins values, the source holds several entries; their conditions need not be identical. Equal values may be shown once.
# Legend:
# Format in all cases: cell-based, human
# HCT-116 cells = assay: MTT antiproliferative assay, HCT-116; conditions: IC50 THLE-2 / IC50 HCT-116
# HepG2 cells = assay: MTT antiproliferative assay, HepG2; conditions: IC50 THLE-2 / IC50 HePG2
# MCF-7 cells = assay: MTT antiproliferative assay, MCF-7; conditions: IC50 THLE-2 / IC50 MCF-7
SMILES,SI HCT-116 (HCT-116 cells),SI HePG2 (HepG2 cells),SI MCF-7 (MCF-7 cells)
Cc1ccc(S(=O)(=O)Nc2ccc(Nc3c4ccccc4nc4ccccc34)cc2)cc1 [Compound 8b],> 3 and 5.91,> 3 and 3.82,
CC(=O)Nc1ccc(S(=O)(=O)Nc2ccc(Cc3ccc(Nc4c5ccccc5nc5ccccc45)cc3)cc2)cc1 [Compound 7c],2.56,> 3 and 3.35,> 3 and 3.57

# Source: PMC11597879, “In Silico and In Vitro Investigation of Cytotoxicity and Apoptosis of Acridine/Sulfonamide Hybrids Targeting Topoisomerases I and II” (Pharmaceuticals, 2024)
